Laboratory results: PubChem BioAssay AID504804 (Drosophila RNAi Screening Center, 2011)

- Assay: 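Fly genes whose loss lessens doxorubicin-driven cell death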 (primary screen)
- Cell system: Drosophila Kc cells
- Reagents: long dsRNA against Drosophila genes, 0.5 µg dsRNA per well
- Time to read-out: 96 h (48 h knock-down, then 48 h drug)
- Challenge: doxorubicin 5 µg/ml for 48 h, added 48 h after dsRNA
- Read-out: 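Luminescent ATP counts per replicate, not normalised, reflecting viable cells after 48 h dsRNA knock-down followed by 48 h of 5 µg/ml doxorubicin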
- Direction: raw ATP luminescence: higher = more viable cells, protection from doxorubicin
- Call rule: 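z-score of 2 or more over plate mean in both duplicates, retained only when retests and separate dsRNAs confirm the protection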
The deposit covers about 19,000 reagents; shown is an unselected part of those that have a named target and a result. Over the whole deposit, 47 (0.25%) are marked active. 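Signals are raw, not normalised; exact z-scores behind calls not deposited; actives needed confirmation, so some wells reaching 2 SD are inactive.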 Names joined by + are all predicted targets of the reagent. Reagent sequences are not shown.

no.	gene	dsRNA	raw ATP luminescence, replicate 1	raw ATP luminescence, replicate 2	Outcome
1	CG6282	DRSC10616	37783	38910	inactive
2	CG18585	DRSC02678	1.02e5	77457	inactive
3	Ccp84Ae	DRSC12590	63990	56643	inactive
4	r + CG13012	DRSC19531	4.06e5	3.35e5	inactive
5	Nlg1	DRSC12485	78747	56393	inactive
6	Nlg1	DRSC12532	68870	56810	inactive
7	Nlg1	DRSC12533	67857	59290	inactive
8	Nlg1	DRSC12539	67963	63363	inactive
9	fliI	DRSC20578	1.47e5	1.84e5	inactive
10	CG34163	DRSC01219	3.44e5	2.86e5	inactive
11	ranshi	DRSC16564	57757	75707	inactive
12	Pef	DRSC06695	63290	58987	inactive
13	Ugt36F1	DRSC02601	63023	56830	inactive
14	nAChRbeta1	DRSC08097	1.84e5	1.44e5	inactive
15	nAChRbeta1	DRSC08728	40310	48300	inactive
16	flap	DRSC03918	82080	56873	inactive
17	flap	DRSC04087	64563	67347	inactive
18	Aplip1	DRSC07947	1.13e5	97093	inactive
19	CG10274	DRSC09716	39017	38667	inactive
20	Kr	DRSC04622	19407	69180	inactive
21	CG31522	DRSC12005	57540	67443	inactive
22	fng	DRSC11455	62440	74057	inactive
23	fng	DRSC11887	20533	19820	inactive
24	Etf-QO	DRSC06111	41833	91273	inactive
25	Cpr49Ac	DRSC07199	61597	45003	inactive
26	GstE12	DRSC04047	70920	67480	inactive
27	CG12446	DRSC20618	3.15e5	3.14e5	inactive
28	Phb1	DRSC03563	1.10e5	60810	inactive
29	Pgant9	DRSC05621	1.06e5	1.17e5	inactive
30	Prp16	DRSC19542	4.03e5	3.43e5	inactive
31	CG11970	DRSC14157	53307	30057	inactive
32	rump	DRSC16480	67753	24983	inactive
33	CG14354	DRSC14817	51510	44970	inactive
34	CG12994	DRSC19192	2.06e5	2.16e5	inactive
35	CG12994	DRSC19514	2.81e5	2.18e5	inactive
36	CG4598	DRSC02763	46177	47880	inactive
37	Cyp9c1	DRSC04607	78557	67120	inactive
38	CG9459	DRSC16496	56040	53603	inactive
39	CG17105	DRSC02574	36580	62973	inactive
40	CR14117	DRSC10121	85707	74583	inactive
41	rn	DRSC12500	24477	19510	inactive
42	rn	DRSC12543	44210	56957	inactive
43	rn	DRSC12544	58080	47167	inactive
44	rn	DRSC12546	66363	53977	inactive
45	CG15554	DRSC15092	56830	46630	inactive

No new results follow: entries from further up.
no.	gene	dsRNA	raw ATP luminescence, replicate 1	raw ATP luminescence, replicate 2	Outcome
29	Pgant9	DRSC05621	1.06e5	1.17e5	inactive
30	Prp16	DRSC19542	4.03e5	3.43e5	inactive
31	CG11970	DRSC14157	53307	30057	inactive
32	rump	DRSC16480	67753	24983	inactive
33	CG14354	DRSC14817	51510	44970	inactive
34	CG12994	DRSC19192	2.06e5	2.16e5	inactive

The list goes on:
no.	gene	dsRNA	raw ATP luminescence, replicate 1	raw ATP luminescence, replicate 2	Outcome
46	Dscam3	DRSC14525	63770	65880	inactive
47	Dscam3	DRSC16376	73250	65110	inactive
48	CG9649	DRSC16534	51627	19597	inactive
49	CG31835 + CG42585	DRSC01412	1.95e5	2.05e5	inactive
50	CG33286	DRSC11691	81227	63420	inactive
51	RPA1	DRSC16830	44583	26577	inactive
52	CG3631	DRSC15503	62387	38957	inactive
53	CG33722 + CG18749	DRSC12674	67187	73863	inactive
54	CG33722 + CG18749	DRSC15386	52767	59187	inactive
55	Acbp1	DRSC03093	51467	76723	inactive
56	Ugt37D1	DRSC02645	69507	67040	inactive
57	kcc	DRSC04316	68043	60980	inactive
58	kcc	DRSC04516	62230	52877	inactive
59	mRpL2	DRSC10896	79110	88657	inactive
60	14-3-3epsilon	DRSC16370	66790	71910	inactive
61	CadN	DRSC03286	58523	68003	inactive
62	MBD-like	DRSC16996	59313	61357	inactive
63	Uxt	DRSC01962	71597	61563	inactive
64	Hsp27	DRSC11190	35977	35120	inactive
65	E(spl)mdelta-HLH	DRSC16698	68380	60570	inactive
66	CG42375 + CG9288	DRSC16468	60893	39197	inactive
67	CG12929	DRSC06242	49453	85627	inactive
68	CG34176	DRSC00435	30450	31340	inactive
69	dnr1	DRSC03948	1.17e5	94173	inactive
70	dnr1	DRSC04122	52140	43180	inactive
71	CG7747	DRSC07038	60730	55877	inactive
72	CG42360	DRSC04224	45187	49827	inactive
73	CG12848	DRSC04128	46160	67523	inactive
74	dj	DRSC12625	50937	57057	inactive
75	Tctp	DRSC15649	54083	52490	inactive
76	tant	DRSC11401	85740	72893	inactive
77	Rdl	DRSC11264	43830	36540	inactive
78	CG1113	DRSC12163	71060	83340	inactive
79	CG13983	DRSC02315	25133	28910	inactive
80	SecS	DRSC12222	58753	63733	inactive
81	CtsL3	DRSC12171	41410	18743	inactive
82	CG34002	DRSC09512	91543	85913	inactive
83	CG34002	DRSC11953	51013	53967	inactive
84	Ir67a	DRSC09897	1.13e5	83970	inactive
